In patent US6800481B1, “Stable macroscopic membranes formed by self-assembly of amphiphilic peptides and uses therefor” (priority 1992, dated 2004):
At least one structure is not confirmed: it was looked up by name or label, or the drawing left a doubt. Starred links: 1 amine or outer side, 2 acyl side, 3 side chain; linkers in the order of their positions; H or OH if unused. Non-standard residues stand in square brackets, D forms with d. Residues, ends and D or L forms follow the SMILES beside them. *: point of attachment. X1 = O=C([C@@H]1C(c2cccnc2)CCN1[*:1])[*:2]; X2 = O=C([C@@H]1C(Cl)C(Cl)CN1[*:1])[*:2]; Nicotinoyl = O=C(c1cccnc1)*; Nle = CCCC[C@H](N)C(=O)O

Test: Testing of peptides for macroscopic membrane formation (phase-contrast microscope, Congo Red staining)
Format: physicochemical
Description: The effect of length and sequence on membrane formation was examined using several peptides (Table 1 and Example 3). […] Very long peptides, e.g., of about 200 amino acids, may encounter problems due to insolubility and intramolecular interactions which destabilize membrane formation. […] The optimal lengths for membrane formation will probably vary with the amino acid composition.
The EAK12 and EAK16 tested for membrane formation were acetylated and aminylated at both N- and C-terminal ends. […] The peptides were initially dissolved in water (5 mg/ml) or in 23% acetonitrile (10 mg/ml). A volume of 5-10 microliters of the dissolved peptides were applied to the DMEM medium, PBS or water. The formation of the membrane was first observed under a phase-contrast microscope and then, by the naked eye after staining with Congo Red.

## CCCC[C@H](NC(=O)[C@H](CC(C)C)NC(=O)[C@H](Cc1c[nH]c2ccccc12)NC(=O)[C@H](Cc1ccccc1)NC(=O)[C@H](Cc1c[nH]c2ccccc12)NC(=O)[C@H](CC(N)=O)NC(=O)[C@H](Cc1ccccc1)NC(=O)[C@@H]1C(Cl)C(Cl)CN1C(=O)[C@H](C)NC(=O)[C@@H]1C(c2cccnc2)CCN1C(=O)[C@H](CCCCN)NC(=O)c1cccnc1)C(=O)O (stereo partly drawn) [Spantide, H2N-(D)RPKPQQ(D)WL(D)L-CONH2, reference compound] (Nicotinoyl-K[X1]A[X2]FNWFWL[Nle]-OH)
DMEM medium
  membranous structure in DMEM: −
PBS
  membranous structure in PBS: −
Identical conditions, in words
  formation of macroscopic membranes: None of these peptides produced macroscopic membranes
water
  membranous structure in Water: −
